These are yes or no findings as the source states them, for the method shown. Binding can be weak; no strength is given. For some assays here: Sequences can lack the tags named with a protein. For some assays here: Binding seen in cells or lysates may run through a third protein.
Columns and labels:
[1] = molecular target: T1, His-TgROP9 (Toxoplasma gondii) (UniProt S8F3X8); experiment: BLI; His-tagged proteins (1 μM) loaded on Ni-NTA sensors; GST-tagged sortilin at 100, 150, 200, 250 and 300 nM in PBS, 180 s association, 180 s dissociation; GST (1 μM) as negative control; both purified
T1 sequence: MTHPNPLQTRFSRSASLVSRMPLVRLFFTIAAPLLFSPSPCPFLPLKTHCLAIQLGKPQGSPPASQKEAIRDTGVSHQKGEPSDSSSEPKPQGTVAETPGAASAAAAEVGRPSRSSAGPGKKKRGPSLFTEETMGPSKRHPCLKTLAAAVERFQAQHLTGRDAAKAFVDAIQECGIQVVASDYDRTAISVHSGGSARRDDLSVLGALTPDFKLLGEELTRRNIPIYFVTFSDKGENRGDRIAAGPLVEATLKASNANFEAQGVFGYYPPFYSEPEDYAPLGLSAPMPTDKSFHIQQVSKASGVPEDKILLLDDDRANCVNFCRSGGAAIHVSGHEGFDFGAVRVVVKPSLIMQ

[2] = molecular target: Native T. gondii sortilin (TGGT1_290160) (Toxoplasma gondii (endogenous in RH tachyzoites)); experiment: co-IP; rat anti-sortilin IgG immunoprecipitate of T. gondii RH tachyzoite lysate, Western blot with TgROP9-, TgMIC3- and TgSAG2-specific mouse IgG; Vero cell total proteins as negative control

## GST-tagged recombinant sortilin protein (Toxoplasma gondii (RH strain))
[1]
  binding: binds

B1: TgROP9 (protein, UniProt S8F3X8 1-353)
chain: T1 sequence
[2]
  binding: binds
